Reference: US20210292760
Where cells or extracts were used, other partners may take part. For some assays here: A negative result means that nothing was seen under these conditions. For at least one entry, the source does not settle the construct or the ends of the probe.

Protein sequences, listed by entry. Tags and fused reporters are not part of them. Lines headed by an entry give the natural chain unless they say otherwise; changes in a name come on top.
UniProt Q04609: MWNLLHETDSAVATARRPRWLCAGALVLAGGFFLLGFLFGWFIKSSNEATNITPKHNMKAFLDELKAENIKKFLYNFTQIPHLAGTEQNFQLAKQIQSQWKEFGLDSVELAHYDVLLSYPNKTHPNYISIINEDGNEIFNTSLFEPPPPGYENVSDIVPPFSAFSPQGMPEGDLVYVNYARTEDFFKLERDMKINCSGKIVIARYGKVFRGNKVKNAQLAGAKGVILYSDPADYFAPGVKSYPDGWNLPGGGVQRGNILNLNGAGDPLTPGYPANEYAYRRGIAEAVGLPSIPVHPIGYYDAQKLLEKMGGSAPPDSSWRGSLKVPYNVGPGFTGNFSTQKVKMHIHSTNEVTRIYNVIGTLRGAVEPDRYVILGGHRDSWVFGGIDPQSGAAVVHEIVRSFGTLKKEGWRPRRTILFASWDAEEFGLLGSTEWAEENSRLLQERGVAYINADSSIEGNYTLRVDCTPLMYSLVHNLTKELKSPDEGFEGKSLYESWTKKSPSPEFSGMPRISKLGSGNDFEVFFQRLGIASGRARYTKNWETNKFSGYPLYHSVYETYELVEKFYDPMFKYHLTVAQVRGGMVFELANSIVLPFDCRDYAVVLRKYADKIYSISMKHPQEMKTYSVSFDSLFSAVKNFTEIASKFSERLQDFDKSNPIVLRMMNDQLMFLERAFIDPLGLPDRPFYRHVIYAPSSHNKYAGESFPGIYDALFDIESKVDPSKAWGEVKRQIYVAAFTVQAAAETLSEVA

Columns and labels:
[1] = tested on: CD3 (TCR/CD3 complex) (Homo sapiens); assay: flow cytometry; conditions: protein on the cell surface, protein details: endogenous on Jurkat cells (ATCC TIB-152)
[2] = target: PSMA (prostate-specific membrane antigen, FOLH1) (Homo sapiens) (UniProt Q04609); assay: flow cytometry; conditions: LNCaP, protein on the cell surface, protein details: endogenous on LNCaP cells (ATCC CRL-1740), label: 5'-Biotin-TEG
[3] = 2'-F RNA part, triazole click linkage A10 3'-end to 5'-end of anti-CD3 aptamer, Jurkat, dose-dependent, signal lower than anti-CD3 monomer, Ramos binding strongly reduced, label: 5'-Biotin-TEG, variant of A10
[4] = 2'-F RNA part, triazole click linkage A10 3'-end to 5'-end of anti-CD3 aptamer, signal superior to A10 monomer, reduced PC-3 binding, variant of A10
[5] = 2'-F RNA, triazole click linkage A10 3'-end to 5'-end of anti-CD3 aptamer, Jurkat, dose-dependent, signal lower than anti-CD3 monomer, Ramos binding strongly reduced, label: 5'-Biotin-TEG, variant of A10
[6] = 2'-F RNA, triazole click linkage A10 3'-end to 5'-end of anti-CD3 aptamer, signal superior to A10 monomer, reduced PC-3 binding, DPBS 5% FBS, 37C, 40-50% LNCaP killing with PBMC at 100 nM for the RNA/RNA bispecifics (p77), variant of A10
[7] = 5'-alkyne (for dimerization), Jurkat, residual binding to CD3-negative Ramos only at highest concentration, 37C, label: biotin, single-stranded DNA
[8] = 2'-F RNA (2'-deoxy-2'-fluoro-thymidine-modified as stated), 5'-alkyne (for dimerization), Jurkat, residual binding to CD3-negative Ramos only at highest concentration, 37C, label: biotin

Sequence: GGGAGGACGAUGCGGAUCAGCCAUGUUUACGUCACUCCU [A10]
- binding result ([1]; 2'-F RNA, 3'-azide, A10 did not bind Jurkat or Ramos cells, label: 5'-Biotin-TEG): no binding
- binding result ([2]; 2'-F RNA, 3'-azide, dose-dependent 30-300 nM, no saturation, residual binding to PSMA-negative PC-3 only at highest concentration, 37C, 5% FBS): binds

Sequence: GGGAGGACGAUGCGGAUCAGCCAUGUUUACGUCACUCCUGGGTTTGGCATCGGGCCTGGC [A10xCELTIC_core bispecific]
- binding result [1, 3]: binds
- binding result [2, 4]: binds

Sequence: GGGAGGACGAUGCGGAUCAGCCAUGUUUACGUCACUCCUTACCGCGGGGATTGGCTCCGGGCCTGGCGTCGTAATCTGA [A10xCELTIC_19s bispecific]
- binding result [1, 3]: binds
- binding result [2, 4]: binds

Sequence: GGGAGGACGAUGCGGAUCAGCCAUGUUUACGUCACUCCUTTTCCGGGTGGGGGTTTGGCACCGGGCCTGGCGCAGGGATTCG [A10xCELTIC_1s bispecific]
- binding result [1, 3]: binds
- binding result [2, 4]: binds

Sequence: GGGAGGACGAUGCGGAUCAGCCAUGUUUACGUCACUCCUUAUAGACUUUAAUGUCUCAUUUUCGCAGCGAUUCUUGUUUAUUUAACAUA [A10xARACD3-3700006 bispecific]
- binding result [1, 5]: binds
- binding result [2, 6]: binds

Sequence: GGGAGGACGAUGCGGAUCAGCCAUGUUUACGUCACUCCUUCUAAGCAAUAUUGUUUGCUUUUGCAGCGAUUCUGUUUCGAUAUAUUA [A10xARACD3-0010209 bispecific]
- binding result [1, 5]: binds
- binding result [2, 6]: binds

Sequence: GGGTTTGGCATCGGGCCTGGC [CELTIC_core]
- binding result [1, 7]: binds

Sequence: TACCGCGGGGATTGGCTCCGGGCCTGGCGTCGTAATCTGA [CELTIC_19s]
- binding result [1, 7]: binds

Sequence: TTTCCGGGTGGGGGTTTGGCACCGGGCCTGGCGCAGGGATTCG [CELTIC_1s]
- binding result [1, 7]: binds

Sequence: UAUAGACUUUAAUGUCUCAUUUUCGCAGCGAUUCUUGUUUAUUUAACAUA [ARACD3-3700006]
- binding result [1, 8]: binds

Sequence: UCUAAGCAAUAUUGUUUGCUUUUGCAGCGAUUCUGUUUCGAUAUAUUA [ARACD3-0010209]
- binding result [1, 8]: binds
